Results from patent US20020188122A1, “Novel compounds” (SmithKline Beecham Corporation, priority 1993, published 2002).
Some results were stated once for a whole list of compounds, not compound by compound. For some of these results: At least one structure is not confirmed: it was looked up by name or label, or the drawing left a doubt.

Tests used:
[1] = system: IL-1 produced by human monocytes; assay: Interleukin-1 (IL-1) production by LPS-stimulated human monocytes; type: cell-based; details: lipopolysaccharide 50 ng/ml, 24 h
[2] = system: TNF produced by human monocytes; assay: Tumour Necrosis Factor (TNF) production by LPS-stimulated human monocytes; type: cell-based; details: LPS 100 ng/ml, 16-18 hours

SMILES	inhibition of in vitro IL-1 produced by human monocytes [1]	inhibition of in vitro TNF produced by human monocytes [2]
Fc1ccc(-c2ncn(CCCN3CCOCC3)c2-c2ccncc2)cc1 [Example 1, 1-[3-(4-Morpholinyl)propyl]-4-(4-fluorophenyl)-5-(4-pyridyl)imidazole]	inhibitors	inhibitors
Fc1ccc(-c2ncn(CCCCl)c2-c2ccncc2)cc1 [Example 2, 1-(3-Chloropropyl)-4-(4-fluorophenyl)-5-(4-pyridyl)imidazole]	inhibitors	inhibitors
[N-]=[N+]=NCCCn1cnc(-c2ccc(F)cc2)c1-c1ccncc1 [Example 3, 1-(3-Azidopropyl)-4-(4-fluorophenyl)-5-(4-pyridyl)imidazole]	inhibitors	inhibitors
NCCCn1cnc(-c2ccc(F)cc2)c1-c1ccncc1 [Example 4, 1-(3-Aminopropyl)-4-(4-fluorophenyl)-5-(4-pyridyl)imidazole]	inhibitors	inhibitors
CS(=O)(=O)NCCCn1cnc(-c2ccc(F)cc2)c1-c1ccncc1 [Example 5, 1-(3-Methylsulfonamidopropyl)-4-(4-fluorophenyl)-5-(4-pyridyl)imidazole]	inhibitors	inhibitors
CN(CCCn1cnc(-c2ccc(F)cc2)c1-c1ccncc1)Cc1ccccc1 [Example 7, 1-[3-(N-Phenylmethyl-N-methyl)aminopropyl)-4-(4-fluorophenyl)-5-(4-pyridyl)imidazole]	inhibitors	
Fc1ccc(-c2ncn(CCCN3CCCC3)c2-c2ccncc2)cc1 [Example 8, 1-[3-(1-Pyrrolidinyl)propyl]-4-(4-fluorophenyl)-5-(4-pyridyl)imidazole]	inhibitors	inhibitors
CCN(CC)CCCn1cnc(-c2ccc(F)cc2)c1-c1ccncc1 [Example 9, 1-(3-Diethylaminopropyl)-4-(4-fluorophenyl)-5-(4-pyridyl)imidazole]	inhibitors	inhibitors
Fc1ccc(-c2ncn(CCCN3CCCCC3)c2-c2ccncc2)cc1 [Example 10, 1-[3-(1 -Piperidinyl)propyl]-4-(4-fluorophenyl)-5-(4-pyridyl)imidazole]	inhibitors	inhibitors
CSCCCn1cnc(-c2ccc(F)cc2)c1-c1ccncc1 [Example 11, 1-[3-(Methylthio)propyl]-4-(4-fluorophenyl)-5-(4-pyridyl)imidazole]	inhibitors	inhibitors
Fc1ccc(-c2ncn(CCN3CCOCC3)c2-c2ccncc2)cc1 [Example 12, 1-[2-(4-Morpholinyl)ethyl]-4-(4-fluorophenyl)-5-(4-pyridyl)imidazole]	inhibitors	inhibitors
CSc1cccc(-c2ncn(CCCN3CCOCC3)c2-c2ccncc2)c1 [Example 13, 1-[3-(4-Morpholinyl)propyl]-4-(3-methylthiophenyl)-5-(4-pyridyl)imidazole]	inhibitors	inhibitors
C[S+]([O-])c1cccc(-c2ncn(CCCN3CCOCC3)c2-c2ccncc2)c1 (stereo not shown) [Example 14, 1-[3-(4-Morpholinyl)propl]-4-(3-methylsulfinylphenyl)-5-(4-pyridyl)imidazole]	inhibitors	
CSc1cccc(-c2ncn(CCCN(C)Cc3ccccc3)c2-c2ccncc2)c1 [Example 15, 1-[3-(N-methyl-N-benzyl)aminopropyl]-4-(3-methylthiophenyl)-5-(4-pyridyl)imidazole]	inhibitors	
CN(CCCn1cnc(-c2cccc([S+](C)[O-])c2)c1-c1ccncc1)Cc1ccccc1 (stereo not shown) [Example 16, 1-[3-(N-methyl-N-benzyl)aminopropyl]-4-(3-methylsulfinylphenyl)-5-(4-pyridyl)imidazole]	inhibitors	
CSc1ccc(-n2cnc(-c3ccc(F)cc3)c2-c2ccncc2)cc1 [Example 17, 1-[4-(Methylthio)phenyl]-4-(4-fluorophenyl)-5-(4-pyridyl)imidazole]	inhibitors	inhibitors
C[S+]([O-])c1ccc(-n2cnc(-c3ccc(F)cc3)c2-c2ccncc2)cc1 (stereo not shown) [Example 18, 1-[4-(Methylsulfinyl)phenyl]-4-(4-fluorophenyl)-5-(4-pyridyl)imidazole]	inhibitors	inhibitors
CSc1cccc(-n2cnc(-c3ccc(F)cc3)c2-c2ccncc2)c1 [Example 19, 1-[3-(Methylthio)phenyl]-4-(4-fluorophenyl)-5-(4-pyridyl)imidazole]	inhibitors	inhibitors
C[S+]([O-])c1cccc(-n2cnc(-c3ccc(F)cc3)c2-c2ccncc2)c1 (stereo not shown) [Example 20, 1-[3-(Methylsulfinyl)phenyl]-4-(4-fluorophenyl)-5-(4-pyridyl)imidazole]	inhibitors	inhibitors
CSc1ccccc1-n1cnc(-c2ccc(F)cc2)c1-c1ccncc1 [Example 21, 1-[2-(Methylthio)phenyl]-4-(4-fluorophenyl)-5-(4-pyridyl)imidazole]	inhibitors	inhibitors
C[S+]([O-])c1ccccc1-n1cnc(-c2ccc(F)cc2)c1-c1ccncc1 (stereo not shown) [Example 22, 1-[2-(Methylsulfinyl)phenyl]-4-(4-fluorophenyl)-5-(4-pyridyl)imidazole]	inhibitors	inhibitors
Fc1ccc(-c2ncn(CCCCN3CCOCC3)c2-c2ccncc2)cc1 [Example 24, 1-[4-(4-Morpholinyl)butyl]-4-(4-fluorophenyl)-5-(4-pyridyl)imidazole]	inhibitors	inhibitors
